Assay results from PubChem BioAssay AID200 (DTP/NCI, 2004).
The list does not hold the whole screen: its compounds were picked by chemical class. Other doses and runs of a compound may be missing. T/C gives the treated animals as a percentage of the vehicle group. For survival time, this PubChem deposit counts one and a half times the control or more as active, and values a quarter to a half above the control carry no call in these data; other NCI protocols may use other cut-offs. Schedule codes are those of the source, read here as Q, the interval in days (D) or hours (H), X, the number of doses. Some entries show no survivor count and are marked so; the dose need not have been tolerated. Brackets with × count equal records among those shown. Some doses were run more than once; their values stand side by side, smallest first.

System: B6C3F1 mice, B16 melanoma ip, median survival T/C
Assay: NCI In Vivo Anticancer Drug Screen. Data for tumor model B16 Melanoma (intraperitoneal) in B6C3F1 mice
Details: T/C endpoint: median survival time, schedule: Q01DX009 (ip), higher T/C = longer survival
Description: The antitumor activity of compounds was measured in mice bearing transplantable tumors. Survival or tumor size were measured and the results are expressed as the measurement made in the treated group (T) divided by the measurement made in the vehicle treated control group (C). The tumor model used in this assay is B16 Melanoma (intraperitoneal) in B6C3F1 mice

[1] = dose: 0.25 mg/kg/injection, vehicle: water
[2] = dose: 0.5 mg/kg/injection, vehicle: water
[3] = dose: 1.0 mg/kg/injection, vehicle: water
[4] = dose: 0.16 mg/kg/injection, vehicle: saline
[5] = dose: 0.31 mg/kg/injection, vehicle: saline
[6] = dose: 0.13 mg/kg/injection, vehicle: saline + alcohol
[7] = dose: 0.25 mg/kg/injection, vehicle: saline + alcohol
[8] = dose: 0.5 mg/kg/injection, vehicle: saline + alcohol
[9] = dose: 1.0 mg/kg/injection, vehicle: saline + alcohol
[10] = dose: 2.0 mg/kg/injection, vehicle: saline + alcohol

C[C@H](O)[C@H]1/C=C/C=C\C(=O)O[C@@H]2C[C@H]3O[C@@H]4[C@@H]5O[C@]5(C)CCC4(COC(=O)[C@H]4O[C@]4(C)[C@@H](O)CO1)[C@]2(C)[C@]31CO1 (stereo partly specified)
T/C (dose: 0.93 mg/kg/injection, vehicle: saline + Tween-80 + alcohol): 154 % of control [survivor count not shown] | T/C (dose: 1.25 mg/kg/injection, vehicle: saline + Tween-80 + alcohol): 165 % of control [survivor count not shown] | T/C (dose: 2.5 mg/kg/injection, vehicle: saline + Tween-80 + alcohol): 188 % of control [survivor count not shown]

C=C(C)C(=O)OCC12CC(=O)C(C)=CC1OC1C(=O)C(OC(=O)C(=C)C)C2(C)C12CO2 (stereo unspecified)
T/C [1]: 142 % of control [survivor count not shown] | T/C [2]: 133 % of control [survivor count not shown] | T/C [3]: 167 % of control [survivor count not shown]

CC(=O)OCC12CCC(C)=CC1OC1C3(O)N=C(C)OC3C2(C)C12CO2 (stereo unspecified)
T/C (dose: 0.5 mg/kg/injection, vehicle: distilled water + Tween-80): 114 % of control [survivor count not shown] | T/C (dose: 1.0 mg/kg/injection, vehicle: distilled water + Tween-80): 132 % of control [survivor count not shown] | T/C (dose: 2.0 mg/kg/injection, vehicle: distilled water + Tween-80): 125 % of control [survivor count not shown] (2×) | T/C (dose: 4.0 mg/kg/injection, vehicle: distilled water + Tween-80): 121 [survivor count not shown] and 138 % of control [survivor count not shown] | T/C (dose: 8.0 mg/kg/injection, vehicle: distilled water + Tween-80): 127 % of control [survivor count not shown]

CC(=O)OCC12CCC(C)=CC1OC1C(O)C(OC(C)=O)C2(C)C12CO2 (stereo unspecified)
T/C (dose: 0.13 mg/kg/injection, vehicle: saline): 106 [survivor count not shown] and 118 % of control [survivor count not shown] | T/C (dose: 0.13 mg/kg/injection, vehicle: water): 114 [survivor count not shown] and 131 % of control [survivor count not shown] | T/C [4]: 144 % of control [survivor count not shown] | T/C (dose: 0.25 mg/kg/injection, vehicle: saline): 113 [survivor count not shown] and 128 % of control [survivor count not shown] | T/C (dose: 0.25 mg/kg/injection, vehicle: water, evaluated on day 45): 136 % of control [survivor count not shown] | T/C (dose: 0.25 mg/kg/injection, vehicle: water, evaluated on day 60): 120 [survivor count not shown], 126 [survivor count not shown], 133 [survivor count not shown], 135 % of control [survivor count not shown] | T/C [5]: 142 % of control [survivor count not shown] | T/C (dose: 0.5 mg/kg/injection, vehicle: saline): 126 [survivor count not shown] and 130 % of control [survivor count not shown] | T/C (dose: 0.5 mg/kg/injection, vehicle: water, evaluated on day 45): 132 [survivor count not shown] and 151 % of control [survivor count not shown] | T/C (dose: 0.5 mg/kg/injection, vehicle: water, evaluated on day 60): 125 [survivor count not shown], 133 [survivor count not shown], 136 % of control [survivor count not shown] | T/C (dose: 1.0 mg/kg/injection, vehicle: saline): 123 [survivor count not shown] and 124 % of control [survivor count not shown] | T/C (dose: 1.0 mg/kg/injection, vehicle: water, evaluated on day 45): 138 % of control [survivor count not shown] | T/C (dose: 1.0 mg/kg/injection, vehicle: water, evaluated on day 60): 119 [survivor count not shown], 122 [survivor count not shown], 136 [survivor count not shown], 138 % of control [survivor count not shown] | T/C (dose: 1.25 mg/kg/injection, vehicle: saline): 127 % of control [survivor count not shown] | T/C (dose: 2.0 mg/kg/injection, vehicle: saline): 109 [survivor count not shown] and 127 % of control [survivor count not shown] | T/C (dose: 2.0 mg/kg/injection, vehicle: water, evaluated on day 45): 116 [survivor count not shown] and 136 % of control [survivor count not shown] | T/C (dose: 2.0 mg/kg/injection, vehicle: water, evaluated on day 60): 108 [survivor count not shown], 122 [survivor count not shown], 130 [survivor count not shown], 136 % of control [survivor count not shown]

CC(=O)OCC12CC(O)C(C)=CC1OC1C(O)C(OC(C)=O)C2(C)C12CO2 (stereo unspecified)
T/C [4]: 130 % of control [survivor count not shown] | T/C [5]: 136 % of control [survivor count not shown] | T/C (dose: 0.63 mg/kg/injection, vehicle: saline): 159 % of control [survivor count not shown]

C=C(C)C(=O)OC[C@]12CCC(C)=C[C@H]1O[C@@H]1[C@H](O)[C@@H](O)[C@@]2(C)[C@@]12CO2
T/C [6]: 134 % of control [survivor count not shown] | T/C [7]: 132 % of control [survivor count not shown] | T/C [8]: 149 % of control [survivor count not shown] | T/C [9]: 138 % of control [survivor count not shown] | T/C [10]: 144 % of control [survivor count not shown]

CC(=O)OC[C@]12CC(=O)C(C)=C[C@H]1O[C@@H]1C(=O)[C@@H](OC(C)=O)[C@@]2(C)[C@@]12CO2
T/C (dose: 0.12 mg/kg/injection, vehicle: water): 117 % of control [survivor count not shown] | T/C [6]: 106 % of control [survivor count not shown] | T/C [7]: 108 % of control [survivor count not shown] | T/C [1]: 111 [survivor count not shown] and 157 % of control [survivor count not shown] | T/C [8]: 114 % of control [survivor count not shown] | T/C [2]: 122 [survivor count not shown] and 177 % of control [survivor count not shown] | T/C [9]: 128 % of control [survivor count not shown] | T/C [3]: 168 % of control [survivor count not shown] | T/C [10]: 139 % of control [survivor count not shown] | T/C (dose: 2.0 mg/kg/injection, vehicle: water): 137 % of control [survivor count not shown]
